Results on 1 substance are retold here after paper PMC4131480.

By UniProt entry, the sequences of proteins in these tests, tags left out.
UniProt P33533: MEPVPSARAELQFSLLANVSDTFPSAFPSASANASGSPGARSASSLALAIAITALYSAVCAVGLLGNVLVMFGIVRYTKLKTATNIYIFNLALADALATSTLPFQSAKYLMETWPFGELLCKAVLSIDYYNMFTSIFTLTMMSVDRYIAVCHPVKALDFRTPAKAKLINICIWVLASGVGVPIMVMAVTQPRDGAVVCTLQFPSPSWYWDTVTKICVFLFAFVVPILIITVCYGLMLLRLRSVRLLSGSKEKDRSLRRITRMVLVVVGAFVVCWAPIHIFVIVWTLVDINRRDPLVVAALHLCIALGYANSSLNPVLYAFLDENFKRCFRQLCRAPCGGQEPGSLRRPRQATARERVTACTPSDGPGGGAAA
UniProt O35433: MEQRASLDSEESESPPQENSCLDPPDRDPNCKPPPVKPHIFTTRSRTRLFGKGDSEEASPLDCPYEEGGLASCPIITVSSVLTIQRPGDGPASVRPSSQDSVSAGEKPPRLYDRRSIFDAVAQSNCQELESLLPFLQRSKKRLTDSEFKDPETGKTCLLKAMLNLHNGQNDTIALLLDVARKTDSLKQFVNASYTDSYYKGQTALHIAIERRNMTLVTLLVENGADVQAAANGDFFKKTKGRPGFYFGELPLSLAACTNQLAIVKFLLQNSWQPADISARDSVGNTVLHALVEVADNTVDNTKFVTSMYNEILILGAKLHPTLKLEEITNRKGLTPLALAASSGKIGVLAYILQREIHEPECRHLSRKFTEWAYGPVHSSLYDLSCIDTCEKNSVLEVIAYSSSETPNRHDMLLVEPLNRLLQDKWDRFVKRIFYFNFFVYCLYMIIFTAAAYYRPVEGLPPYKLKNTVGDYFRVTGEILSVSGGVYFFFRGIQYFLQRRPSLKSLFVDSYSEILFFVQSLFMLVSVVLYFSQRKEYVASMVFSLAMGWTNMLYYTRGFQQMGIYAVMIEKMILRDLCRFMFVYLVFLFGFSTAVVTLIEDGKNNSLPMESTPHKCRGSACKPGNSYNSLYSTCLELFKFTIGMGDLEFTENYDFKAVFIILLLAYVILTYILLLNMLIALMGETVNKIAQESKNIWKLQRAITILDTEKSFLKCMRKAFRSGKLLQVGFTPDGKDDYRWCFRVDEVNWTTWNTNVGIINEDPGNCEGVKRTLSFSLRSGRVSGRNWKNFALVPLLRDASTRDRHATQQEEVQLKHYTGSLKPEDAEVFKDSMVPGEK
UniProt P29067: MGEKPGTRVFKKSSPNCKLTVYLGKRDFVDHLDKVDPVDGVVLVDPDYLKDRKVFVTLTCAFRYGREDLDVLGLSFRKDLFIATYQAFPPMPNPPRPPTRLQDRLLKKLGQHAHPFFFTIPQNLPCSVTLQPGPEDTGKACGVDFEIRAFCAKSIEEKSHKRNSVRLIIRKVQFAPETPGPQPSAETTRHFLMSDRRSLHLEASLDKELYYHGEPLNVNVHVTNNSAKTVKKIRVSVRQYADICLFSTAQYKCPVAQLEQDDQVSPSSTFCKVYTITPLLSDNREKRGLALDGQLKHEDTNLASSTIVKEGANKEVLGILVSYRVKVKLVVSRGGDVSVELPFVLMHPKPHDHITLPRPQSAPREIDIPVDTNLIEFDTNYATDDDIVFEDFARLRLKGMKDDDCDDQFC

In test [1] the target is delta opioid receptor (rat (endogenous in trigeminal ganglion neurons)) (UniProt P33533). The test can be described thus: co-IP; plasma membranes of cultured rat TG neurons pretreated with SNC80 (1 μM), ARM390 (1 μM) or vehicle (0.1% DMSO) for 30 min; IP for DOPr or TRPV1, Western blot for β-arrestin2.
Test [2] addresses transient receptor potential vanilloid type 1 (rat (endogenous in trigeminal ganglion neurons)) (UniProt O35433). The description is as above.

Results are given in words; binding and its absence hold for the method and conditions named. In cells and extracts the contact can be indirect. Some results given as binding are weak or reduced against the parent protein; the word gives no strength.

As for β-arrestin2 (from UniProt P29067 1-410), the binding entry in test [1] and in test [2] was “binds” throughout.
